From patent publication US20120149591A1
These are yes or no findings as the source states them, for the method shown. Some entries that bind do so weakly or less than the wild type.

The chains behind the UniProt entries cited, without tags or fusion partners. Residues count along the entry.
UniProt P01012, residues 2-386: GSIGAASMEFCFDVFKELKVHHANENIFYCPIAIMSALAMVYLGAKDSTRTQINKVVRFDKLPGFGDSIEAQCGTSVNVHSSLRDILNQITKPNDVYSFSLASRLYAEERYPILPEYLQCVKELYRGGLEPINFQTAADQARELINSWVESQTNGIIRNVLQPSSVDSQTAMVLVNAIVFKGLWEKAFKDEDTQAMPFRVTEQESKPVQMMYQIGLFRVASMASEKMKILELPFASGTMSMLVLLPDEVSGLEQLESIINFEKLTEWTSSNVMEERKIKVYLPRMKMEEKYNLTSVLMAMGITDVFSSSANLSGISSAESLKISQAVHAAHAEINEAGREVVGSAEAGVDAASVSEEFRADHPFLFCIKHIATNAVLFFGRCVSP

What follows are binders tested against ovalbumin (UniProt P01012) (assay: phage ELISA on coated ovalbumin, anti-M13-HRP detection).

| Binder | binding |
| --- | --- |
| LVLHWLSLGSR (peptide, not shown: large carriers) [C6] | binds |
| SNQVVLILHLRP (peptide, not shown: large carriers) [C8] | binds |
| ANLWRIVLHGWW (peptide, not shown: large carriers) [C1] | binds |
| VSFMLLGPHRHR (peptide, not shown: large carriers) [C4] | binds |
